Source: the supplement of paper PMC12819154, “High-throughput peptide-centric local stability assay extends protein–ligand identification to membrane proteins, tissues and bacteria” (Nature Structural & Molecular Biology, 2025)
The other results are listed elsewhere or left out. Most entries show no effect beyond the scatter of the controls.

Amino acid sequences for entries named in this document (tags omitted). A change or cut given only in a name is not applied to a line headed by its entry.
UniProt Q9CQQ4: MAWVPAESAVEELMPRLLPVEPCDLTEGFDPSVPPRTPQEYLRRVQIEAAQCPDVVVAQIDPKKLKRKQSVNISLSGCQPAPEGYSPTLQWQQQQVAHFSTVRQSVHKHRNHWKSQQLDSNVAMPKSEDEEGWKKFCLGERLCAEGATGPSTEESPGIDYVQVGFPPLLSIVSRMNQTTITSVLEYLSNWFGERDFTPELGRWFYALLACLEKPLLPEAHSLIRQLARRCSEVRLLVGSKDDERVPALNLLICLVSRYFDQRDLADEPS
UniProt Q9CQI6: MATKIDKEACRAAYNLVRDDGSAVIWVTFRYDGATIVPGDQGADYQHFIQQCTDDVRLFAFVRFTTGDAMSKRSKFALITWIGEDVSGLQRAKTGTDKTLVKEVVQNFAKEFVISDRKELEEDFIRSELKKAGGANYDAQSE
UniProt Q9CQC7: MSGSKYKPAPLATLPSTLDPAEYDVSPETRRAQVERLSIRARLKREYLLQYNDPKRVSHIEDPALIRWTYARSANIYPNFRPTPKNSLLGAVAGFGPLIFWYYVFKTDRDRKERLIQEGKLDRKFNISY
UniProt Q9CQB5: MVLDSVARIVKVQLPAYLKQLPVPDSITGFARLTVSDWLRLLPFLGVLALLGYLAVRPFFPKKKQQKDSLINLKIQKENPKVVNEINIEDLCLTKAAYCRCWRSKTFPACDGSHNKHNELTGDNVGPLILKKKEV
UniProt Q9CQ60: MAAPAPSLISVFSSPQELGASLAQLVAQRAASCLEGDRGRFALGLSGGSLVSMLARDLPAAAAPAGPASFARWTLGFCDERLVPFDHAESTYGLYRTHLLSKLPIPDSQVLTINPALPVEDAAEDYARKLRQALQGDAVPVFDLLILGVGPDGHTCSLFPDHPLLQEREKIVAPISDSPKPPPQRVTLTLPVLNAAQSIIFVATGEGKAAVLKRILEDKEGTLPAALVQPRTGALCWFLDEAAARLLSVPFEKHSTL
UniProt Q9CQ33: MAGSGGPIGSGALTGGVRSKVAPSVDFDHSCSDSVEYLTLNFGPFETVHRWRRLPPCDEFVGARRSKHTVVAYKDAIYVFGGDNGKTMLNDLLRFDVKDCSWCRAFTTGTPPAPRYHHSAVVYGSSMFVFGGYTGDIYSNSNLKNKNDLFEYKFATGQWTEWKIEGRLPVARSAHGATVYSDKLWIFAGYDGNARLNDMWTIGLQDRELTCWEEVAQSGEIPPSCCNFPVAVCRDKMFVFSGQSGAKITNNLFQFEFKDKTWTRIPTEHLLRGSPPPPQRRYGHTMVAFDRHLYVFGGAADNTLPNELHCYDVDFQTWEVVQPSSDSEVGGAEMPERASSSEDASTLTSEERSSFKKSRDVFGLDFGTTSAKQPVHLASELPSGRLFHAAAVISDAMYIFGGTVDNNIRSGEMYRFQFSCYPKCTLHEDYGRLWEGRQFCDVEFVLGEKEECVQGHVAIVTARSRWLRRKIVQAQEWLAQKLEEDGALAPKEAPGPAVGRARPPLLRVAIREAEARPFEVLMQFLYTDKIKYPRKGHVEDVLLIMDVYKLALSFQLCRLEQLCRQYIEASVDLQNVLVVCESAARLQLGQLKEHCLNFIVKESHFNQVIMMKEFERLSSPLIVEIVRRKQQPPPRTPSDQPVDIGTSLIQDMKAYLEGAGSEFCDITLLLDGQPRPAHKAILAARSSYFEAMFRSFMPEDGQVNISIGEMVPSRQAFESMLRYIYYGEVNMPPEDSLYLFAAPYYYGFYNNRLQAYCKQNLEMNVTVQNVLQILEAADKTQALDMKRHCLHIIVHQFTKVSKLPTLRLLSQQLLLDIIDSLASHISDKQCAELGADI
UniProt Q9CQ71: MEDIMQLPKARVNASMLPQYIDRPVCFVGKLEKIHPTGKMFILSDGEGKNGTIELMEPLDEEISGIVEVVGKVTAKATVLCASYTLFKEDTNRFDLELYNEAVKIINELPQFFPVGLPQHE
UniProt Q99LJ2: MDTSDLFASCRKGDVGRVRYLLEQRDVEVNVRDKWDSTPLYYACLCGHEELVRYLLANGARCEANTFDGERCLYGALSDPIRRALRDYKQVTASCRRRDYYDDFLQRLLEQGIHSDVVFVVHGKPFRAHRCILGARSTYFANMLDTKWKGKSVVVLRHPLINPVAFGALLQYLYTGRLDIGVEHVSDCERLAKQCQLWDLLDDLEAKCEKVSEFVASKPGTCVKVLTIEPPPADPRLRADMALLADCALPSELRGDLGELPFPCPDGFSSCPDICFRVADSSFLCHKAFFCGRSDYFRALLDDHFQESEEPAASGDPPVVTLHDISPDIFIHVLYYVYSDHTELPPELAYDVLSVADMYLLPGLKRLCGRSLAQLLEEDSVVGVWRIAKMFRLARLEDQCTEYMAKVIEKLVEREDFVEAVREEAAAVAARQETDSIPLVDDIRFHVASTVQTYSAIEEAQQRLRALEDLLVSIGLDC
UniProt Q9CQ62: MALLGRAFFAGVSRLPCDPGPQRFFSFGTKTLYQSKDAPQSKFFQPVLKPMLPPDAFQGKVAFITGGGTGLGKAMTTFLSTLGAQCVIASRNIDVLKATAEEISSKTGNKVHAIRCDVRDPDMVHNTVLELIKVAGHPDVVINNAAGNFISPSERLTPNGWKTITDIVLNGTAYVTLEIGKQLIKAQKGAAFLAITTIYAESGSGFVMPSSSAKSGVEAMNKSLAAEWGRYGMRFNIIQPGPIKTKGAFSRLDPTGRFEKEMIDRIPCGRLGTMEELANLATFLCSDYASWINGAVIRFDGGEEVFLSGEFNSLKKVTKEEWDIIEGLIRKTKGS
UniProt Q9CQW9, whole entry: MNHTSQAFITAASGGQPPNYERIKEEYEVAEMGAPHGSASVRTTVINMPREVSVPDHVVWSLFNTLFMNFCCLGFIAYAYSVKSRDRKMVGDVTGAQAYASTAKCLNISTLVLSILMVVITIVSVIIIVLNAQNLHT
UniProt Q99MS7: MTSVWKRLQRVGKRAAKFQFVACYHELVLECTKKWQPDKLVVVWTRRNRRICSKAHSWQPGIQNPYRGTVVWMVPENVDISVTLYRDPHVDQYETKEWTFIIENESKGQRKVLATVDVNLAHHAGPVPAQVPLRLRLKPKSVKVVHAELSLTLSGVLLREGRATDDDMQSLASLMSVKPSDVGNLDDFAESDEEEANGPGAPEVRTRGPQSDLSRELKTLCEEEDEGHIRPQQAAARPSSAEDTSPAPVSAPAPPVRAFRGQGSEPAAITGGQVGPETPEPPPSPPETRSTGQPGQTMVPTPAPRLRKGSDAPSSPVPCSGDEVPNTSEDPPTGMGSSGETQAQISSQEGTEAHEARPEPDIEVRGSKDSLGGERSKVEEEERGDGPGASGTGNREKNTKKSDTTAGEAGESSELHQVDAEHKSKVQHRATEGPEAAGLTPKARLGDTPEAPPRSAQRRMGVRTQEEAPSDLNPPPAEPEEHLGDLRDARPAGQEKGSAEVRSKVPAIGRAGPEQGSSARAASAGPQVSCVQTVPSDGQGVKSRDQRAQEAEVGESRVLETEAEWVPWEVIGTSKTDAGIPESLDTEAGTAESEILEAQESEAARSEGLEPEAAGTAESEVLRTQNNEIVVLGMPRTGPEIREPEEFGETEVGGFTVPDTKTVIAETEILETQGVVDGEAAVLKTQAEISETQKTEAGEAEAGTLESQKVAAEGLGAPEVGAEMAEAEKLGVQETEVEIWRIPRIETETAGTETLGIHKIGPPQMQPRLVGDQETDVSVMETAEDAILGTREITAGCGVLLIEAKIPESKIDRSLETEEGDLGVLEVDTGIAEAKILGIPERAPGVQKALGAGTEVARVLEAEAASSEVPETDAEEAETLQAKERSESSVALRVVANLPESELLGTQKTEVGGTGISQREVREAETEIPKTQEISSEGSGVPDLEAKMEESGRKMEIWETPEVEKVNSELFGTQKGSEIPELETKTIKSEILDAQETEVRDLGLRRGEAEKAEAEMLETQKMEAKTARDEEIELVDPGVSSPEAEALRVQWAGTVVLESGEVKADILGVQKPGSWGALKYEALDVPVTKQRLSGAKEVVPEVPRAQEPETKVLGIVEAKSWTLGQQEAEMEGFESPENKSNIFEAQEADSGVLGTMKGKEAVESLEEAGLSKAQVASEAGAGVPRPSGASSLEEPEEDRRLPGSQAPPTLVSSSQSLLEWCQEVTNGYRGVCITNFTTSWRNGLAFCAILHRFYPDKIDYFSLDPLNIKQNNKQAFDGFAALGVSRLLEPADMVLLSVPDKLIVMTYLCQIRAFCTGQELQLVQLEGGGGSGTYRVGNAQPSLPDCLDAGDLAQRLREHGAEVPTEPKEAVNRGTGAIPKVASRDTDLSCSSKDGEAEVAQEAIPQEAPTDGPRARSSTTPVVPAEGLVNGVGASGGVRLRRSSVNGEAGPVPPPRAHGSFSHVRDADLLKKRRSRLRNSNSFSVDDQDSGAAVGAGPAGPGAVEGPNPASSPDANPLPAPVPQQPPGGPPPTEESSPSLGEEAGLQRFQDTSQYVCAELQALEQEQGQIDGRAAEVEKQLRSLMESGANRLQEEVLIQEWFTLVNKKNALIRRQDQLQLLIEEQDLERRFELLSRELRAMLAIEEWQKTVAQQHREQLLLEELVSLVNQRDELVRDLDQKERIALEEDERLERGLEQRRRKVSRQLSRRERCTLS
UniProt Q99N93, whole entry: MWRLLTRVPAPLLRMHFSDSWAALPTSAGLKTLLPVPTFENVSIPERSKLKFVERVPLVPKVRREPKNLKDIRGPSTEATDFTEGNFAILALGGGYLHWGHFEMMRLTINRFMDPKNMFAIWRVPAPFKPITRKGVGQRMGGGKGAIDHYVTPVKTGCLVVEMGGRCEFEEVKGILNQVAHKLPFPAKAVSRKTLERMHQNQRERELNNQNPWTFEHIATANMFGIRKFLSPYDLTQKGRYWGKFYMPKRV
UniProt Q99MD8: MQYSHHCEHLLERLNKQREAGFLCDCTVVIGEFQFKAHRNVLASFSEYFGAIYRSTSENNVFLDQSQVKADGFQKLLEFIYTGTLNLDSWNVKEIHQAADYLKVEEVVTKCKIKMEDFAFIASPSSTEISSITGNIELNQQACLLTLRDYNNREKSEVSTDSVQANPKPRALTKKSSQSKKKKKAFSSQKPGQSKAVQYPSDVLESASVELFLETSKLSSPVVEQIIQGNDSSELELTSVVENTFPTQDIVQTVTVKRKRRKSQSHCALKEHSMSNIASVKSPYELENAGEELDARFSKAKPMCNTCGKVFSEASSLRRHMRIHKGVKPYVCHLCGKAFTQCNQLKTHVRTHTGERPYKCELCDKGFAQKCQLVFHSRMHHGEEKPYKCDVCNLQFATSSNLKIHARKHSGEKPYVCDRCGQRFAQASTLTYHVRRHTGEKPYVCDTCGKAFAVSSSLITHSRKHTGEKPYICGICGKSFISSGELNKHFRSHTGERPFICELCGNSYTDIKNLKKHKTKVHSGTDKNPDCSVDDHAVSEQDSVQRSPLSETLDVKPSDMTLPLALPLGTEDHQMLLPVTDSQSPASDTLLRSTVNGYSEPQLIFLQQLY
UniProt Q9CR55: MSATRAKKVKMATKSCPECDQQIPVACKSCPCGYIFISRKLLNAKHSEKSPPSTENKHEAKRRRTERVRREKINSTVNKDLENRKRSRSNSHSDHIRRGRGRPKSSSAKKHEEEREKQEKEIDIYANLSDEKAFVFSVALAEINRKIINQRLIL
UniProt Q99P30: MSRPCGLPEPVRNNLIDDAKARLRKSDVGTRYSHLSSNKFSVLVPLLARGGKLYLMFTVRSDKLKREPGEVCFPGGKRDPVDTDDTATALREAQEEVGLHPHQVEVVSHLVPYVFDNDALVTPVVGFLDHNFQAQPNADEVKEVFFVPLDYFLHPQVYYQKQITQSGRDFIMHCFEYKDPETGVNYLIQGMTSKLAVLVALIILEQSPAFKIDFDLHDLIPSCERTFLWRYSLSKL
UniProt Q9CQT1: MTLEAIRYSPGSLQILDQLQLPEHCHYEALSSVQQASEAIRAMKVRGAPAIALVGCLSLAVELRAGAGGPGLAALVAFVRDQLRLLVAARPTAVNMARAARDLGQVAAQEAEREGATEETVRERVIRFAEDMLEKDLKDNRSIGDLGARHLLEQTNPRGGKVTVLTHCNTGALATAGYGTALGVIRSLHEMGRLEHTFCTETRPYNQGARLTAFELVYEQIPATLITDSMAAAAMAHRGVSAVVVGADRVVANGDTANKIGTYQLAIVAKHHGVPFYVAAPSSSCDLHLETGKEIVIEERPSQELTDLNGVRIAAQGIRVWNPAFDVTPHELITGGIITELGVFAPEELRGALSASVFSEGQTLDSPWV
UniProt Q9CQ28: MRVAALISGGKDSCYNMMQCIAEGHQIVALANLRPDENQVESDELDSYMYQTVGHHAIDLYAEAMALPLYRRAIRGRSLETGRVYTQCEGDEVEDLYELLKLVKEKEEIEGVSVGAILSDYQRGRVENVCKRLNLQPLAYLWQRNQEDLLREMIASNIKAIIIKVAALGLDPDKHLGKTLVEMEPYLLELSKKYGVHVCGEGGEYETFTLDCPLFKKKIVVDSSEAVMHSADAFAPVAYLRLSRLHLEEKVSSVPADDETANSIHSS
UniProt Q9CQN6: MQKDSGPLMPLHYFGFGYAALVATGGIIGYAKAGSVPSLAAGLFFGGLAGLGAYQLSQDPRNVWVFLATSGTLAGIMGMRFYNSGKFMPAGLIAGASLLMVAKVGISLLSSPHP

compound: CN[C@@H]1C[C@H]2O[C@@](C)([C@@H]1OC)n1c3ccccc3c3c4c(c5c6ccccc6n2c5c31)C(=O)NC4 [staurosporine]; assay: log2 fold change of tryptic peptide abundance, ligand vs vehicle (limited proteolysis) (log2 ratio); higher = more trypsin-susceptible (destabilized); conditions: ligand concentration: 20 uM; sample: mouse liver crude lysate; replicate design: treated separately

Target | log2 fold change
UniProt Q9CQQ4 (peptide sequence: SQQLDSNVAMPK, peptide start residue: 115) | -0.189
UniProt Q9CQV8 (peptide sequence: AVTEQGHELSNEERNLLSVAYK, peptide start residue: 30) | -0.472
UniProt Q9CPT4 (peptide sequence: ESDVPLKSEEFEVTK, peptide start residue: 124) | -0.575
UniProt Q9CQW7 (peptide sequence: ERPTDHR, peptide start residue: 30) | -0.153
UniProt Q99LN9 (peptide sequence: TTESPMVR, peptide start residue: 233) | -0.194
UniProt Q9CPV5 (peptide sequence: NQELADAVLAGR, peptide start residue: 156) | 0.272
UniProt Q9CQI6 (peptide sequence: EFVISDRK, peptide start residue: 111) | 0.0898
UniProt Q99PJ2 (peptide sequence: GHLLVEADDVR, peptide start residue: 131) | 0.282
UniProt Q9CQC7 (peptide sequence: SANIYPNFRPTPK, peptide start residue: 73) | -0.311
UniProt Q99M01 (peptide sequence: LFWSEDER, peptide start residue: 331) | 0.335
UniProt Q9CQE8 (peptide sequence: NIHSSDWPK, peptide start residue: 50) | -0.444
UniProt Q9CQB5 (peptide sequence: VQLPAYLK, peptide start residue: 12) | 0.226
UniProt Q9CPR5 (peptide sequence: GCGTSLDLLR, peptide start residue: 7) | -0.144
UniProt Q9CQC5 (peptide sequence: LSCEPVMEEK, peptide start residue: 143) | 0.123
UniProt Q9CQA9 (peptide sequence: VGSQPLPGKPECR, peptide start residue: 65) | -0.0938
UniProt Q9CQ60 (peptide sequence: AASCLEGDR, peptide start residue: 30) | -0.442
UniProt Q9CQ33 (peptide sequence: DVFGLDFGTTSAK, peptide start residue: 360) | 0.27
UniProt Q9CQ71 (peptide sequence: MFILSDGEGK, peptide start residue: 40) | -0.047

Target | log2 fold change
UniProt Q99LJ2 (peptide sequence: YLLANGAR, peptide start residue: 54) | -0.185
UniProt Q9CQ62 (peptide sequence: LDPTGRFEK, peptide start residue: 252) | -0.254
UniProt Q9CQW9 (peptide sequence: IKEEYEVAEMGAPHGSASVR, peptide start residue: 23) | -0.0892
UniProt Q99MS7 (peptide sequence: ILGIPERAPGVQK, peptide start residue: 836) | 0.448
UniProt Q99N93 (peptide sequence: NMFAIWRVPAPFKPITR, peptide start residue: 117) | -0.795
UniProt Q9CQA3 (peptide sequence: KMMATYK, peptide start residue: 270) | -0.278
UniProt Q99MD8 (peptide sequence: EKSEVSTDSVQANPKPR, peptide start residue: 154) | 0.139
UniProt Q99PL5 (peptide sequence: GEAAQKQDK, peptide start residue: 422) | -1.09
UniProt Q99LM9 (peptide sequence: QYWANLK, peptide start residue: 25) | 0.0338
UniProt Q99NB8 (peptide sequence: RMYTDIQEPMFTAAR, peptide start residue: 279) | -0.427
UniProt Q9CR55 (peptide sequence: EKINSTVNKDLENR, peptide start residue: 71) | -0.794
UniProt Q9CQR2 (peptide sequence: LAKADGIVSKNF, peptide start residue: 72) | 1.46
UniProt Q99P30 (peptide sequence: EPGEVCFPGGKRDPVDTDDTATALR, peptide start residue: 67) | -0.336
UniProt Q9CQT1 (peptide sequence: EGATEETVR, peptide start residue: 114) | -0.213
UniProt Q99NF1 (peptide sequence: KKEPGETIHGAQVLCSIASTEK, peptide start residue: 211) | 0.288
UniProt Q9CQ28 (peptide sequence: VAALGLDPDKHLGK, peptide start residue: 165) | -0.186
UniProt Q9CQE2 (peptide sequence: NVSHLLSVLR, peptide start residue: 9) | 0.207
UniProt Q9CQN6 (peptide sequence: VGISLLSSPHP, peptide start residue: 104) | -0.046
